Reference: US10941351B2, “Layer-separation method of spent caustic solution” (SK Innovation Co., Ltd., priority 2016, dated 2021)

Assay: Layer-separation of pH-adjusted spent caustic solution with additive: phenols remaining and phenol extraction rate
[1] = pH about 2, volume ratio spent caustic solution:additive 99:1, PSC 1,420 ppm

Row | SMILES | PTSC (amount of phenols in final spent caustic solution) [1] | Phenol extraction rate [1] | other results
1 | CCCCC(CC)CO (centres unmarked) [2-Ethyl-1-hexanol, 2-ethyl-1-hexanol] | 700 ppm | 50.7% | Phenol extraction rate (pH about 2, volume ratio spent caustic solution:additive 99:1, PSC 1,420 ppm, listed as 2-ethyl-1-hexanol): about 51%
2 | CCCCOC(C)=O [Butyl acetate, butyl acetate] | 540 ppm | 62.0% | 
3 | CCOC(C)=O [Ethyl acetate, ethyl acetate, reference compound] | 1,040 ppm | 26.7% | Phenol extraction rate (pH about 2, volume ratio spent caustic solution:additive 99:1, PSC 1,420 ppm, listed as Comparative Example 3): about 27%
4 | CCCCCCCCO [Example 11, n-octanol] |  |  | Phenol extraction rate (regenerated additive re-injected into another spent caustic solution, volume ratio 99:1): 45%
5 | Cc1ccccc1 [Toluene, toluene, reference compound] | 1,030 ppm | 27.5% | Phenol extraction rate (pH about 2, volume ratio spent caustic solution:additive 99:1, PSC 1,420 ppm, listed as Comparative Example 6): about 27%
6 | CCCCCCC [n-Heptane, n-heptane, reference compound] | 1,360 ppm | 4.2% | 
7 | CCCCCC [n-Hexane, n-hexane, reference compound] | 1,330 ppm | 6.3% | 
8 | CCCCCCO [n-Hexanol, n-hexanol] | 630 ppm | 55.6% | 
9 | CCCCCCCCO [n-Octanol, n-octanol] | 710 ppm | 50.0% | Phenol extraction rate (volume ratio 90:10 (Example 10)): 82.4%; PTSC (volume ratio 90:10 (Example 10), PSC 1,420 ppm): 250 ppm; Phenol extraction rate (volume ratio 95:5 (Example 9)): 77.5%; PTSC (volume ratio 95:5 (Example 9), PSC 1,420 ppm): 320 ppm; Phenol extraction rate (volume ratio 97:3 (Example 8)): 69.7%; PTSC (volume ratio 97:3 (Example 8), PSC 1,420 ppm): 430 ppm; Phenol extraction rate (volume ratio 99.5:0.5 (Example 7)): 31.7%; PTSC (volume ratio 99.5:0.5 (Example 7), PSC 1,420 ppm): 970 ppm; Phenol extraction rate (volume ratio 99.8:0.2 (Example 6)): 16.2%; PTSC (volume ratio 99.8:0.2 (Example 6), PSC 1,420 ppm): 1,190 ppm; Phenol extraction rate (volume ratio 99.9:0.1 (Example 5)): 12.0%; PTSC (volume ratio 99.9:0.1 (Example 5), PSC 1,420 ppm): 1,250 ppm
